Assay results: patent US20040038284A1
These are yes or no findings as the source states them, for the method shown. Some binding calls cover weakened binding; strength is not graded here.

Protein sequences, listed by entry. Tags and fused reporters are not part of them. Residues count along the entry.
UniProt P01137, residues 279-390: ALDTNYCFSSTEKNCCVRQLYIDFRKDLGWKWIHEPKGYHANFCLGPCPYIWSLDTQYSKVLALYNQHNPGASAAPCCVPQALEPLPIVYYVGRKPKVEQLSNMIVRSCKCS

Molecular target: T1, third TGFβ receptor (RIII) (human) (UniProt Q03167)
T1 sequence (looked up): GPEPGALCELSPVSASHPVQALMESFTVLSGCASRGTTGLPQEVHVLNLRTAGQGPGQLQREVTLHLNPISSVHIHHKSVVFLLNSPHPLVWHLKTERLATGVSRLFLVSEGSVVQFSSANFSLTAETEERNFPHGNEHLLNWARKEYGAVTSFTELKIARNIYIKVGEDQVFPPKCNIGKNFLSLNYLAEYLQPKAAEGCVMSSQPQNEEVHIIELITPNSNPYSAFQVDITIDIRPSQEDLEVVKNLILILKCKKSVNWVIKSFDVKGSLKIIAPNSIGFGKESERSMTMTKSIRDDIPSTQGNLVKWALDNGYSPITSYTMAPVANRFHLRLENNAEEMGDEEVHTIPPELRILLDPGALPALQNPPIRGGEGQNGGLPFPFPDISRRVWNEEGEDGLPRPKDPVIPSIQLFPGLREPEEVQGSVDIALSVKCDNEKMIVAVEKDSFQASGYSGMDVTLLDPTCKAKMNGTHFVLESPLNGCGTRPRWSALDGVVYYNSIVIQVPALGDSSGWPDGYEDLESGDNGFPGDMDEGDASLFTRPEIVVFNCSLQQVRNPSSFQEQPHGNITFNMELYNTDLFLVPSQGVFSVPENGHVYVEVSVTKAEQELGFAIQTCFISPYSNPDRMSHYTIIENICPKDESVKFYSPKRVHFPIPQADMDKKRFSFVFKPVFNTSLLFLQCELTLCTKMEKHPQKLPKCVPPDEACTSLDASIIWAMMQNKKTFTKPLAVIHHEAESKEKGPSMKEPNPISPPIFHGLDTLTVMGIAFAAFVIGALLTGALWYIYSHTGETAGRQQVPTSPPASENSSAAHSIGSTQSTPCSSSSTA
Assay: 125I-TGFβ 1 cross-linking to cell surface receptors of colon cancer cell lines, SDS-PAGE, autoradiography

125I-labeled human TGFβ 1 (from UniProt P01137 279-390) (ligand)
binding: binds
